Residues, ends and D or L forms follow the SMILES beside them.
System: BAK 15–186
Experiment: NMR chemical shift perturbation assay
Type: binding, human
Conditions: 0.5 mM 15N-labeled BAK 15–186 titrated with unlabeled peptide, HSQC at 303 K

SMILES: CC[C@H](C)[C@H](NC(=O)[C@H](CS)NC(=O)[C@H](CCC(N)=O)NC(=O)[C@H](CC(C)C)NC(=O)[C@H](CCCCN)NC(=O)[C@H](CCCNC(=N)N)NC(=O)[C@H](C)NC(=O)[C@@H](NC(=O)[C@H](CCC(N)=O)NC(=O)[C@@H](NC(=O)[C@H](CCC(=O)O)NC(=O)[C@H](C)NC(=O)[C@@H](N)CCC(N)=O)C(C)C)[C@@H](C)CC)C(=O)N[C@@H](C)C(=O)N[C@@H](CC(=O)O)C(=O)N[C@@H](CCC(N)=O)C(=O)N[C@@H](Cc1ccccc1)C(=O)N[C@@H](Cc1c[nH]cn1)C(=O)N[C@@H](CCCNC(=N)N)C(=O)N[C@@H](CC(C)C)C(=O)N[C@@H](Cc1c[nH]cn1)C(=O)N[C@H](C(=O)N[C@@H](CCC(N)=O)C(=O)N[C@@H](CCC(N)=O)C(=O)N[C@@H](Cc1c[nH]cn1)C(=O)N[C@@H](CCC(N)=O)C(=O)O)C(C)C [BMF BH3] (H-QAEVQIARKLQCIADQFHRLHVQQHQ-OH; N-terminus and C-terminus assumed)
- Average CSPs value: 0.02

SMILES: CC[C@H](C)[C@H](NC(=O)[C@H](CCC(=O)O)NC(=O)[C@H](CCCNC(=N)N)NC(=O)[C@H](C)NC(=O)[C@H](Cc1c[nH]c2ccccc12)NC(=O)[C@@H](N)CCC(N)=O)C(=O)NCC(=O)N[C@@H](C)C(=O)N[C@@H](CCC(N)=O)C(=O)N[C@@H](CC(C)C)C(=O)N[C@@H](CCCNC(=N)N)C(=O)N[C@@H](CCCNC(=N)N)C(=O)N[C@@H](CCSC)C(=O)N[C@@H](C)C(=O)N[C@@H](CC(=O)O)C(=O)N[C@@H](CC(=O)O)C(=O)N[C@@H](CC(C)C)C(=O)N[C@@H](CC(N)=O)C(=O)N[C@@H](C)C(=O)N[C@@H](CCC(N)=O)C(=O)N[C@@H](Cc1ccc(O)cc1)C(=O)N[C@@H](CCC(=O)O)C(=O)N[C@@H](CCCNC(=N)N)C(=O)N[C@@H](CCCNC(=N)N)C(=O)N[C@@H](CCCNC(=N)N)C(=O)N[C@@H](CCC(N)=O)C(=O)O [PUMA BH3, reference compound]
- Average CSPs value: 0.01

From paper PMC7335050, “Characterization of an alternative BAK-binding site for BH3 peptides” (Nature Communications, 2020)
